Assay results as given in patent US8461305B2, “L-fucose α1→6 specific lectin” (J-Oil Mills, Inc., priority 2008, dated 2013).
No constants are given. Whether binding was seen depends on the method and setting.

Protein sequences, listed by entry. Tags and fused reporters are not part of them. Residues count along the entry.
UniProt P02769, residues 25-607: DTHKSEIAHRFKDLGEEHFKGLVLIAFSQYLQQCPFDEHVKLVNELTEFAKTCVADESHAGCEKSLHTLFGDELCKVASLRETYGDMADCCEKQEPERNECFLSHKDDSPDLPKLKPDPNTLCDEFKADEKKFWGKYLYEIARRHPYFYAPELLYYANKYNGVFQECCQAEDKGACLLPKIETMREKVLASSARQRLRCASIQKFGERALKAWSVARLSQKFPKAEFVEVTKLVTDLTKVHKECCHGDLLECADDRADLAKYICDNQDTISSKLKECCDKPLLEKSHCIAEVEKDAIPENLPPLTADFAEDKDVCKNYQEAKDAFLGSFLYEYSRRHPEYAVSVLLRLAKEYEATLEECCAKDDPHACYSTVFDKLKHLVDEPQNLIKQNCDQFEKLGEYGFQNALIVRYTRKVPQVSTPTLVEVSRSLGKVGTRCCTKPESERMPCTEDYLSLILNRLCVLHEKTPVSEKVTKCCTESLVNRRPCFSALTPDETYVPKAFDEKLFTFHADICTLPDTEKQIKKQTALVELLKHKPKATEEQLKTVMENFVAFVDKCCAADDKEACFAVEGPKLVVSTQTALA

Target: T1, Pisum sativum agglutinin (PSA) of Comparison Example 4 (Pisum sativum) (UniProt P02867)
T1 sequence (looked up): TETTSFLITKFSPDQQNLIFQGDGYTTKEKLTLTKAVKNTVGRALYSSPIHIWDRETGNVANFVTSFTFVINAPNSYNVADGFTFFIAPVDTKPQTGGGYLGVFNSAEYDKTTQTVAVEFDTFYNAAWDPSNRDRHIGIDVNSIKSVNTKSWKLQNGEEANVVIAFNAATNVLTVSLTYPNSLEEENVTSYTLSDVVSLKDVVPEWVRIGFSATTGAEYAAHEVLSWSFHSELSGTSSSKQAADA
Experiment: hemagglutination inhibition; glycoprotein titrated against lectin at titer 4

binding: no binding (tested: 250 µl/ml)
Substance: Bovine serum albumin (from UniProt P02769 25-607)
